Laboratory results reported in the supplement of paper PMC11546906.
Counter-ions that a name gives are not always drawn. This is one part of the list. Single values are uncertain here, since repeats match poorly.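 FDA-approved drugs were each paired with colistin at one-eighth its MIC and screened against a multidrug-resistant, mcr-1-positive clinical E. coli isolate, with OD600 read after 24 h. Drug-free bacteria served as growth control, plain broth as blank. Combinations were active if OD600 dropped below 0.2.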

tested on: Escherichia coli 42 (mcr-1-positive clinical isolate); assay: OD600 after 24 h growth with compound plus colistin (absorbance units (OD600)); higher = more bacterial growth (less inhibition); settings: first compound 25 µM; colistin concentration 0.5 ug/mL; incubation time 24 h; 37 °C

OD600, inactive:
CN(C)C(=O)C(CCN1CCC(O)(c2ccc(Cl)cc2)CC1)(c1ccccc1)c1ccccc1 [Loperamide hydrochloride] + CCC(C)CCCC(=O)N[C@@H](CCN)C(=O)N[C@H](C(=O)N[C@@H](CCN)C(=O)N[C@H]1CCNC(=O)[C@H]([C@@H](C)O)NC(=O)[C@H](CCN)NC(=O)[C@H](CCN)NC(=O)[C@H](CC(C)C)NC(=O)[C@@H](CC(C)C)NC(=O)[C@H](CCN)NC1=O)[C@@H](C)O [colistin] 0.981
Clc1ccc2c(c1)C(N1CCNCC1)=Nc1ccccc1O2 [Amoxapine] + CCC(C)CCCC(=O)N[C@@H](CCN)C(=O)N[C@H](C(=O)N[C@@H](CCN)C(=O)N[C@H]1CCNC(=O)[C@H]([C@@H](C)O)NC(=O)[C@H](CCN)NC(=O)[C@H](CCN)NC(=O)[C@H](CC(C)C)NC(=O)[C@@H](CC(C)C)NC(=O)[C@H](CCN)NC1=O)[C@@H](C)O [colistin] 1.05
CN(C)c1ccc2nc3ccc(=[N+](C)C)cc-3sc2c1 [Methylene Blue trihydrate] + CCC(C)CCCC(=O)N[C@@H](CCN)C(=O)N[C@H](C(=O)N[C@@H](CCN)C(=O)N[C@H]1CCNC(=O)[C@H]([C@@H](C)O)NC(=O)[C@H](CCN)NC(=O)[C@H](CCN)NC(=O)[C@H](CC(C)C)NC(=O)[C@@H](CC(C)C)NC(=O)[C@H](CCN)NC1=O)[C@@H](C)O [colistin] 0.922
Cc1cc2c(s1)Nc1ccccc1N=C2N1CCN(C)CC1 [Olanzapine] + CCC(C)CCCC(=O)N[C@@H](CCN)C(=O)N[C@H](C(=O)N[C@@H](CCN)C(=O)N[C@H]1CCNC(=O)[C@H]([C@@H](C)O)NC(=O)[C@H](CCN)NC(=O)[C@H](CCN)NC(=O)[C@H](CC(C)C)NC(=O)[C@@H](CC(C)C)NC(=O)[C@H](CCN)NC1=O)[C@@H](C)O [colistin] 0.856
